This note sets out measurements from publication PMC10881024.

Sequences of proteins named here, by UniProt entry; tags and fusion partners are left off. Residues count along the entry.
UniProt Q8IYV9, residues 22-285: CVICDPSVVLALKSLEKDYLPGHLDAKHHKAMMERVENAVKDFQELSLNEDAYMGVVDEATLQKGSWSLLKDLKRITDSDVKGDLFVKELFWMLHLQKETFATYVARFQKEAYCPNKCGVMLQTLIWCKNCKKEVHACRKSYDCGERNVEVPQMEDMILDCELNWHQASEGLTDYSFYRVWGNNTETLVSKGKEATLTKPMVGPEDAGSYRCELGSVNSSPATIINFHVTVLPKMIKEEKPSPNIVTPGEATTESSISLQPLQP
UniProt A6ND01, residues 20-231: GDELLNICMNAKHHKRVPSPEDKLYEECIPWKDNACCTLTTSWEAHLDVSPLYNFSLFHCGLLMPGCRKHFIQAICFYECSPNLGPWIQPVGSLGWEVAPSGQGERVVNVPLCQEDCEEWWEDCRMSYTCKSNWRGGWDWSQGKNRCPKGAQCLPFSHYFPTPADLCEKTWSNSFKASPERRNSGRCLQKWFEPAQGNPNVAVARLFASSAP

These are yes or no findings as the source states them, for the method shown. Sequences can lack the tags named with a protein.

Test [1] concerns the target T1, FCRL3-TM-GFP: entire ectodomain of human FCRL3 with the rat CD200R transmembrane domain and cytoplasmic EGFP, on HEK293 cells (human) (UniProt Q96P31).
T1 sequence: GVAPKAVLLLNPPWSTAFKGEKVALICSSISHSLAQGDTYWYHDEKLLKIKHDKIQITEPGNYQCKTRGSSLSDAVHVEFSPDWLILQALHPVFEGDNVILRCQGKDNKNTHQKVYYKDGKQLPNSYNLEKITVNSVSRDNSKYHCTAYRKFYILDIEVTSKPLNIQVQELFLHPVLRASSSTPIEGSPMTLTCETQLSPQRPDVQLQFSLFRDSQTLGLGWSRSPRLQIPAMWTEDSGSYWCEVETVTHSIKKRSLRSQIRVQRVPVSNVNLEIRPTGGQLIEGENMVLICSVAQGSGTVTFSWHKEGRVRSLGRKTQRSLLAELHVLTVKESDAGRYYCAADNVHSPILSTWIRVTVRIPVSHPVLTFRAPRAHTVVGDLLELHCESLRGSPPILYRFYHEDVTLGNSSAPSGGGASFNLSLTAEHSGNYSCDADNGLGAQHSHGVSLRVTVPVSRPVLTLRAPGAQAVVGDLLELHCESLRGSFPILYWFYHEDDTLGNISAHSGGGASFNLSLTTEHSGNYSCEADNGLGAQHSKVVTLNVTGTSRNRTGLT
Description: cell-based binding assay (fluorescent avid probe on transfected cells, confocal microscopy); biotinylated monomeric IZUMO1 clustered around a streptavidin-phycoerythrin conjugate, incubated 1 hour at 37°C with transfected HEK293 cells showing the ectodomain as TM-GFP fusion; washed with DPBS, fixed with 4% formaldehyde.

The target of test [2] is T2, human FCRL3 (MAIA) entire ectodomain, biotinylated, rat Cd4 domains 3 and 4 tagged (bait construct) (human) (UniProt Q96P31).
T2 sequence (chain, enzymatically biotinylated (BirA) on the biotinylation target sequence): T1 sequence
Put plainly: AVEXIS (avidity-based extracellular interaction screening); biotinylated baits captured on streptavidin-coated 96-well plates; highly avid beta-lactamase-tagged preys (normalised conditioned medium) incubated 1 hour at room temperature; washes in PBS-T and PBS; nitrocefin hydrolysis read at 485 nm.

In test [3] the target is T1, FCRL3-TM-GFP: entire ectodomain of human FCRL3 with the rat CD200R transmembrane domain and cytoplasmic EGFP, on HEK293 cells (human). Description: cell-based binding assay (avid probe on transfected cells, confocal microscopy); JUNO ectodomain as a pentameric binding probe presented to transfected HEK293 cells showing the ectodomain as TM-GFP fusion.

As for “human IZUMO1 entire ectodomain, biotinylated, rat Cd4 domains 3 and 4 tagged (bait construct) (from UniProt Q8IYV9 22-285) (domain or fragment)”, the binding result in test [1] is recorded as “no binding”. Turning to “human IZUMO1 entire ectodomain, pentameric beta-lactamase-tagged prey (from UniProt Q8IYV9 22-285) (domain or fragment)”, in test [2], the binding entry was “no binding”. Consider “human JUNO entire ectodomain, pentameric beta-lactamase-tagged prey (from UniProt A6ND01 20-231) (domain or fragment)”, for which the binding result in test [3] and in test [2] was “no binding” in each case.
